Sequences of proteins named here, by UniProt entry; tags and fusion partners are left off. A change or cut given only in a name is not applied to a line headed by its entry.
UniProt C5J412: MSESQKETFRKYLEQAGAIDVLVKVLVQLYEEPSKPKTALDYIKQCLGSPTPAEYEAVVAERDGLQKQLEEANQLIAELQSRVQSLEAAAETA

According to article PMC4901443:

Assays:
[1] = target: T1, RSP3 (AKAP97), endogenous in axonemes (Chlamydomonas reinhardtii (endogenous in axonemes)) (UniProt P12759); experiment: far-Western, overlay or dot blot; axonemes of WT and mutants (pf14, pf15, pf18, pf19, pf20) on SDS-PAGE, blotted on nitrocellulose, overlaid with ~20 μg/ml purified 6His-FAP174 or 6His-RIIa D/D; detected with HRP-conjugated anti-His antibody; only the binder purified
T1 sequence: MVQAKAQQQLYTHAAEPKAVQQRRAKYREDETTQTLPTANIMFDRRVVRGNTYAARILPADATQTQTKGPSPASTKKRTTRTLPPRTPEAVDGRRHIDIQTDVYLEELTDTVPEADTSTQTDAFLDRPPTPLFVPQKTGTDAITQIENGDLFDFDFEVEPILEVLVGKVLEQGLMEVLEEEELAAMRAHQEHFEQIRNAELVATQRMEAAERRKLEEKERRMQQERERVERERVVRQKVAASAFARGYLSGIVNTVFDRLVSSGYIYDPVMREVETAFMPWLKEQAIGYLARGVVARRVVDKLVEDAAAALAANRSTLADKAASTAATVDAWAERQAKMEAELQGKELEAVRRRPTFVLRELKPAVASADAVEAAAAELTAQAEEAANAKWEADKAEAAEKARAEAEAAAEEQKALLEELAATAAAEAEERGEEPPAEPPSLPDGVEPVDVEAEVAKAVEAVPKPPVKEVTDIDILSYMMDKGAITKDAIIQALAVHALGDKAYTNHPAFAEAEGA

[2] = target: 6His-FAP174 (Flagellar Associated Protein 174) (Chlamydomonas reinhardtii) (UniProt C5J412); experiment: pull-down; purified 6His-tagged protein held on Ni-NTA resin (4 °C, 1 h), purified GST fusion or GST added (4 °C, 2 h); 25 mM Tris-Cl pH 7.5, 150 mM NaCl, 5 % sucrose, 0.1 % Triton-X, 50 mM imidazole; silver staining; both purified
[3] = target: 6His-tagged Arl6 (ADP ribosylation factor-like 6 protein) (Chlamydomonas reinhardtii); experiment: as above

6His-FAP174 (Flagellar Associated Protein 174) (from UniProt C5J412)
binding [1]: no binding (tested: ~20 μg/ml)

B1: GST-RSP3 AH(96–180) (domain or fragment, UniProt P12759 96-180)
chain: HIDIQTDVYLEELTDTVPEADTSTQTDAFLDRPPTPLFVPQKTGTDAITQIENGDLFDFDFEVEPILEVLVGKVLEQGLMEVLEE
binding [2]: binds weakly
binding [3]: no binding

Results are given in words; binding and its absence hold for the method and conditions named. For part of these data: A result given as binding can be weak or reduced; the word gives no strength. For part of these data: Tags and fused reporters may be left off the sequences shown.
